This is one part of the list. Many values rest on one well or one pass, so single values are uncertain.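 Imaging used 1,536-well plates; nuclei positive for cleaved PARP by antibody were divided by total DNA-stained nuclei to yield the apoptosis fraction. Doses for screening kept most cells viable, and cell lines differ markedly in resting and induced cleaved-PARP levels.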
Assays:
Assay in all cases: cleaved PARP positive nuclei fraction relative to DMSO control; melanoma cells; higher = more apoptosis
Details in all cases: library dose: low library concentration; 72 h
MZ2-MEL = system: MZ2-MEL
MeWo = system: MeWo
RPMI7951 = system: RPMI7951
RVH-421 = system: RVH-421
SkMel28 = system: SkMel28
SkMel30 = system: SkMel30
UACC62 = system: UACC62
SkMel2 = system: SkMel2
SkMel5 = system: SkMel5
UACC257 = system: UACC257

Compound | cleaved PARP positive nuclei fraction (MZ2-MEL) [%] | cleaved PARP positive nuclei fraction (MeWo) [%] | cleaved PARP positive nuclei fraction (RPMI7951) [%] | cleaved PARP positive nuclei fraction (RVH-421) [%] | cleaved PARP positive nuclei fraction (SkMel28) [%] | cleaved PARP positive nuclei fraction (SkMel30) [%] | cleaved PARP positive nuclei fraction (UACC62) [%] | cleaved PARP positive nuclei fraction (SkMel2) [%] | cleaved PARP positive nuclei fraction (SkMel5) [%] | cleaved PARP positive nuclei fraction (UACC257) [%]
C[C@]1(O)C[C@@H](c2nc(-c3ccc4ccc(-c5ccccc5)nc4c3)c3c(N)nccn32)C1 + CCCCCCCCc1ccc(CCC(N)(CO)CO)cc1 [fingolimod] (first compound 0.4 µM, partner dose 2 µM) | 57.4 | 108 | 232 | 88.4 | 49.2 | 42.3 | 319 | – | – | –
CC1(C)CCC(c2ccc(Cl)cc2)=C(CN2CCN(c3ccc(C(=O)NS(=O)(=O)c4ccc(N[C@H](CCN5CCOCC5)CSc5ccccc5)c(S(=O)(=O)C(F)(F)F)c4)cc3)CC2)C1 + CS(=O)(=O)CCNCc1ccc(-c2ccc3ncnc(Nc4ccc(OCc5cccc(F)c5)c(Cl)c4)c3c2)o1 [lapatinib] (first compound 0.4 µM, partner dose 0.8 µM) | 256 | 557 | 178 | 112 | 84.2 | 446 | 77.9 | – | – | –
CS(=O)(=O)c1ccc(C(=O)Nc2ccc(Cl)c(-c3ccccn3)c2)c(Cl)c1 [vismodegib] + CN(NC(=O)CC(=O)NN(C)C(=S)c1ccccc1)C(=S)c1ccccc1 [STA4783] (first compound 1 µM, partner dose 0.006 µM) | – | 36.3 | 79.1 | 182 | 25.4 | 242 | 222 | 95.7 | 130 | 92.6
CC(=O)O[C@@]12CO[C@@H]1C[C@H](O)[C@@]1(C)C(=O)[C@H](O)C3=C(C)[C@@H](OC(=O)[C@H](O)[C@@H](NC(=O)OC(C)(C)C)c4ccccc4)C[C@@](O)([C@@H](OC(=O)c4ccccc4)[C@H]21)C3(C)C [Docetaxel] + Cc1cc([N+](=O)[O-])ccc1NS(=O)(=O)c1cc(Cl)ccc1Cl [FH535] (first compound 0.0001 µM, partner dose 1 µM) | – | 110 | 349 | 103 | 324 | 51.6 | 498 | 485 | 87.1 | 163
CCN(CC)CCNC(=O)c1c(C)[nH]c(/C=C2\C(=O)Nc3ccc(F)cc32)c1C [sunitinib] + O=C(O)C(=O)Nc1sc2c(c1C(=O)O)CCNC2 [TCS401] (first compound 0.4 µM, partner dose 1.66667 µM) | – | 94.3 | 70 | 125 | 82.2 | 35.3 | 113 | 152 | 71.3 | 44.5
CC(=O)O[C@@]12CO[C@@H]1C[C@H](O)[C@@]1(C)C(=O)[C@H](O)C3=C(C)[C@@H](OC(=O)[C@H](O)[C@@H](NC(=O)OC(C)(C)C)c4ccccc4)C[C@@](O)([C@@H](OC(=O)c4ccccc4)[C@H]21)C3(C)C [Docetaxel] + COc1cc2ncnc(Nc3ccc(Oc4ccccc4)cc3)c2cc1OC [SrcI1] (first compound 0.0001 µM, partner dose 2 µM) | – | 428 | 124 | 142 | 1010 | 372 | 343 | 880 | 109 | 271
CN(c1ncccc1CNc1nc(Nc2ccc3c(c2)CC(=O)N3)ncc1C(F)(F)F)S(C)(=O)=O + CO[C@@H]1[C@H](N(C)C(=O)c2ccccc2)C[C@H]2O[C@]1(C)n1c3ccccc3c3c4c(c5c6ccccc6n2c5c31)C(=O)NC4 [Midostaurin] (first compound 0.08 µM, partner dose 0.08 µM) | – | 161 | 92.2 | 72.9 | 30.3 | 76 | 78 | 90.8 | 77.5 | 55.1
COc1ccc(C2=N[C@@H](c3ccc(Cl)cc3)[C@@H](c3ccc(Cl)cc3)N2C(=O)N2CCNC(=O)C2)c(OC(C)C)c1 [Nutlin-3] + COCC[n+]1c2c(n(Cc3cnccn3)c1C)C(=O)c1ccccc1C2=O [YM155] (first compound 0.1 µM, partner dose 0.0004 µM) | 63.2 | 84 | 48.8 | 118 | 33.6 | 94.1 | 142 | – | – | –
C[C@]1(O)C[C@@H](c2nc(-c3ccc4ccc(-c5ccccc5)nc4c3)c3c(N)nccn32)C1 + C[C@@H]1CCN(C(=O)CC#N)C[C@@H]1N(C)c1ncnc2[nH]ccc12 [CP690550] (first compound 0.4 µM, partner dose 1 µM) | – | 49 | 75.4 | 47.5 | 55.4 | 157 | 155 | 177 | 135 | 80.9
C[C@@H](N)c1ccc(C(=O)Nc2ccnc3[nH]ccc23)cc1 + CCN(CC)CCNC(=O)c1c(C)[nH]c(/C=C2\C(=O)Nc3ccc(F)cc32)c1C [sunitinib] (first compound 0.4 µM, partner dose 0.4 µM) | – | 113 | 238 | 99.9 | 88.4 | 75.7 | 133 | 175 | – | –
CCCCCCCCc1ccc(CCC(N)(CO)CO)cc1 [fingolimod] + Cc1ccc(NC(=O)c2cccc(N(C)C)c2)cc1NC(=O)c1ccc(O)cc1 [ZM336372] (first compound 2 µM, partner dose 2 µM) | – | 53.3 | 123 | 45.4 | 69.4 | 74 | 262 | 59.8 | 78.9 | 127
NC1(c2ccc(-c3nc4ccn5c(=O)[nH]nc5c4cc3-c3ccccc3)cc2)CCC1 + CO[C@H]1C[C@@H]2CC[C@@H](C)[C@@](O)(O2)C(=O)C(=O)N2CCCC[C@H]2C(=O)O[C@H]([C@H](C)C[C@@H]2CC[C@@H](OCCO)[C@H](OC)C2)CC(=O)[C@H](C)/C=C(\C)[C@@H](O)[C@@H](OC)C(=O)[C@H](C)C[C@H](C)/C=C/C=C/C=C/1C [everolimus] (first compound 0.4 µM, partner dose 0.02 µM) | 127 | 144 | 106 | 39 | 234 | 319 | 379 | – | – | –
NC1(c2ccc(-c3nc4ccn5c(=O)[nH]nc5c4cc3-c3ccccc3)cc2)CCC1 + CO[C@@H]1[C@H](N(C)C(=O)c2ccccc2)C[C@H]2O[C@]1(C)n1c3ccccc3c3c4c(c5c6ccccc6n2c5c31)C(=O)NC4 [Midostaurin] (first compound 0.4 µM, partner dose 0.08 µM) | – | 94.3 | 211 | 77 | 82.7 | 182 | 560 | 127 | 74.7 | 77.5
CCCCCCCCc1ccc(CCC(N)(CO)CO)cc1 [fingolimod] + CC(=O)c1c(C)c2cnc(Nc3ccc(N4CCNCC4)cn3)nc2n(C2CCCC2)c1=O [palbociclib] (first compound 2 µM, partner dose 0.04 µM) | 76.4 | 91.6 | 167 | 26.5 | 52.9 | 93.2 | 97 | – | – | –
CCN(CC)CCNC(=O)c1c(C)[nH]c(/C=C2\C(=O)Nc3ccc(F)cc32)c1C [sunitinib] + O=C(Nc1ccccc1)c1cc([N+](=O)[O-])ccc1Cl [GW9662] (first compound 0.4 µM, partner dose 2 µM) | – | 66.7 | 131 | 87.8 | 188 | 64.9 | 194 | – | 127 | 137
CCCCCCCCc1ccc(CCC(N)(CO)CO)cc1 [fingolimod] + CN(c1ncccc1CNc1nc(Nc2ccc3c(c2)CC(=O)N3)ncc1C(F)(F)F)S(C)(=O)=O [PF562271] (first compound 2 µM, partner dose 0.08 µM) | – | 167 | 186 | 54.1 | 109 | 25.3 | 145 | – | – | –

A section of the results above, for reference:
Compound | cleaved PARP positive nuclei fraction (MZ2-MEL) [%] | cleaved PARP positive nuclei fraction (MeWo) [%] | cleaved PARP positive nuclei fraction (RPMI7951) [%] | cleaved PARP positive nuclei fraction (RVH-421) [%] | cleaved PARP positive nuclei fraction (SkMel28) [%] | cleaved PARP positive nuclei fraction (SkMel30) [%] | cleaved PARP positive nuclei fraction (UACC62) [%] | cleaved PARP positive nuclei fraction (SkMel2) [%] | cleaved PARP positive nuclei fraction (SkMel5) [%] | cleaved PARP positive nuclei fraction (UACC257) [%]
NC1(c2ccc(-c3nc4ccn5c(=O)[nH]nc5c4cc3-c3ccccc3)cc2)CCC1 + CO[C@H]1C[C@@H]2CC[C@@H](C)[C@@](O)(O2)C(=O)C(=O)N2CCCC[C@H]2C(=O)O[C@H]([C@H](C)C[C@@H]2CC[C@@H](OCCO)[C@H](OC)C2)CC(=O)[C@H](C)/C=C(\C)[C@@H](O)[C@@H](OC)C(=O)[C@H](C)C[C@H](C)/C=C/C=C/C=C/1C [everolimus] (first compound 0.4 µM, partner dose 0.02 µM) | 127 | 144 | 106 | 39 | 234 | 319 | 379 | – | – | –
NC1(c2ccc(-c3nc4ccn5c(=O)[nH]nc5c4cc3-c3ccccc3)cc2)CCC1 + CO[C@@H]1[C@H](N(C)C(=O)c2ccccc2)C[C@H]2O[C@]1(C)n1c3ccccc3c3c4c(c5c6ccccc6n2c5c31)C(=O)NC4 [Midostaurin] (first compound 0.4 µM, partner dose 0.08 µM) | – | 94.3 | 211 | 77 | 82.7 | 182 | 560 | 127 | 74.7 | 77.5
